{"source": "paper PMC9290826", "about": "(Chemmedchem, 2021)", "tested_on": "Escherichia coli (DSM1116, ATCC 9637)", "experiment": "Antibacterial screening, broth dilution MIC", "type": "cell-based", "details": "ATCC9637|DSM1116, 20 h, read-out: Mean MIC ± standard error", "how_it_was_run": "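Test compound serially diluted from 64 μg/ml, inoculum 2–8×10^5 CFU/ml, duplicate wells. Incubated 20 h at 37 °C, then absorbance read at 600 nm. MIC derived by curve fitting over three independent experiments. Positive controls: linezolid for S. aureus, ciprofloxacin for the others.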", "data": [{"compound": "O=C(O)c1cn(C2CC2)c2cc(N3CCNCC3)c(F)cc2c1=O", "note": "[ciprofloxacin, reference compound]", "values": [{"measurement": "MIC", "result": "0.3 ± 0.1", "unit": "µM"}]}]}
